The subject of this experiment is recRSV-L19FD489E-fireSMASh. The experiment is classed as cell-based, Respiratory Syncytial Virus.

`O=c1n(Cc2nc3ccccc3n2CCCCO)c2cnccc2n1C1CC1` [BMS-433771]: the “hit status in co-infection validation assay with pan-resistant RSV-FD489E” value is “did not emerge as hits”.
